These are yes or no findings as the source states them, for the method shown. In cells and extracts the contact can be indirect.
Biological target: endogenous HERC2 (human (endogenous in HEK293ET)) (UniProt O95714)
Experiment: co-IP; antibodies to endogenous HECT ligases (4 μg) coupled to Dynabeads protein G; lysates of HEK293ET/HEK293T cells expressing 3xFLAG TRABID constructs; 1 h at RT; four washes in Triton Lysis Buffer; anti-FLAG blot

By UniProt entry, the sequences of proteins in these tests, tags left out. Where a name states a change or a piece, a line headed by the entry shows the natural chain unless it says otherwise.
UniProt O95714: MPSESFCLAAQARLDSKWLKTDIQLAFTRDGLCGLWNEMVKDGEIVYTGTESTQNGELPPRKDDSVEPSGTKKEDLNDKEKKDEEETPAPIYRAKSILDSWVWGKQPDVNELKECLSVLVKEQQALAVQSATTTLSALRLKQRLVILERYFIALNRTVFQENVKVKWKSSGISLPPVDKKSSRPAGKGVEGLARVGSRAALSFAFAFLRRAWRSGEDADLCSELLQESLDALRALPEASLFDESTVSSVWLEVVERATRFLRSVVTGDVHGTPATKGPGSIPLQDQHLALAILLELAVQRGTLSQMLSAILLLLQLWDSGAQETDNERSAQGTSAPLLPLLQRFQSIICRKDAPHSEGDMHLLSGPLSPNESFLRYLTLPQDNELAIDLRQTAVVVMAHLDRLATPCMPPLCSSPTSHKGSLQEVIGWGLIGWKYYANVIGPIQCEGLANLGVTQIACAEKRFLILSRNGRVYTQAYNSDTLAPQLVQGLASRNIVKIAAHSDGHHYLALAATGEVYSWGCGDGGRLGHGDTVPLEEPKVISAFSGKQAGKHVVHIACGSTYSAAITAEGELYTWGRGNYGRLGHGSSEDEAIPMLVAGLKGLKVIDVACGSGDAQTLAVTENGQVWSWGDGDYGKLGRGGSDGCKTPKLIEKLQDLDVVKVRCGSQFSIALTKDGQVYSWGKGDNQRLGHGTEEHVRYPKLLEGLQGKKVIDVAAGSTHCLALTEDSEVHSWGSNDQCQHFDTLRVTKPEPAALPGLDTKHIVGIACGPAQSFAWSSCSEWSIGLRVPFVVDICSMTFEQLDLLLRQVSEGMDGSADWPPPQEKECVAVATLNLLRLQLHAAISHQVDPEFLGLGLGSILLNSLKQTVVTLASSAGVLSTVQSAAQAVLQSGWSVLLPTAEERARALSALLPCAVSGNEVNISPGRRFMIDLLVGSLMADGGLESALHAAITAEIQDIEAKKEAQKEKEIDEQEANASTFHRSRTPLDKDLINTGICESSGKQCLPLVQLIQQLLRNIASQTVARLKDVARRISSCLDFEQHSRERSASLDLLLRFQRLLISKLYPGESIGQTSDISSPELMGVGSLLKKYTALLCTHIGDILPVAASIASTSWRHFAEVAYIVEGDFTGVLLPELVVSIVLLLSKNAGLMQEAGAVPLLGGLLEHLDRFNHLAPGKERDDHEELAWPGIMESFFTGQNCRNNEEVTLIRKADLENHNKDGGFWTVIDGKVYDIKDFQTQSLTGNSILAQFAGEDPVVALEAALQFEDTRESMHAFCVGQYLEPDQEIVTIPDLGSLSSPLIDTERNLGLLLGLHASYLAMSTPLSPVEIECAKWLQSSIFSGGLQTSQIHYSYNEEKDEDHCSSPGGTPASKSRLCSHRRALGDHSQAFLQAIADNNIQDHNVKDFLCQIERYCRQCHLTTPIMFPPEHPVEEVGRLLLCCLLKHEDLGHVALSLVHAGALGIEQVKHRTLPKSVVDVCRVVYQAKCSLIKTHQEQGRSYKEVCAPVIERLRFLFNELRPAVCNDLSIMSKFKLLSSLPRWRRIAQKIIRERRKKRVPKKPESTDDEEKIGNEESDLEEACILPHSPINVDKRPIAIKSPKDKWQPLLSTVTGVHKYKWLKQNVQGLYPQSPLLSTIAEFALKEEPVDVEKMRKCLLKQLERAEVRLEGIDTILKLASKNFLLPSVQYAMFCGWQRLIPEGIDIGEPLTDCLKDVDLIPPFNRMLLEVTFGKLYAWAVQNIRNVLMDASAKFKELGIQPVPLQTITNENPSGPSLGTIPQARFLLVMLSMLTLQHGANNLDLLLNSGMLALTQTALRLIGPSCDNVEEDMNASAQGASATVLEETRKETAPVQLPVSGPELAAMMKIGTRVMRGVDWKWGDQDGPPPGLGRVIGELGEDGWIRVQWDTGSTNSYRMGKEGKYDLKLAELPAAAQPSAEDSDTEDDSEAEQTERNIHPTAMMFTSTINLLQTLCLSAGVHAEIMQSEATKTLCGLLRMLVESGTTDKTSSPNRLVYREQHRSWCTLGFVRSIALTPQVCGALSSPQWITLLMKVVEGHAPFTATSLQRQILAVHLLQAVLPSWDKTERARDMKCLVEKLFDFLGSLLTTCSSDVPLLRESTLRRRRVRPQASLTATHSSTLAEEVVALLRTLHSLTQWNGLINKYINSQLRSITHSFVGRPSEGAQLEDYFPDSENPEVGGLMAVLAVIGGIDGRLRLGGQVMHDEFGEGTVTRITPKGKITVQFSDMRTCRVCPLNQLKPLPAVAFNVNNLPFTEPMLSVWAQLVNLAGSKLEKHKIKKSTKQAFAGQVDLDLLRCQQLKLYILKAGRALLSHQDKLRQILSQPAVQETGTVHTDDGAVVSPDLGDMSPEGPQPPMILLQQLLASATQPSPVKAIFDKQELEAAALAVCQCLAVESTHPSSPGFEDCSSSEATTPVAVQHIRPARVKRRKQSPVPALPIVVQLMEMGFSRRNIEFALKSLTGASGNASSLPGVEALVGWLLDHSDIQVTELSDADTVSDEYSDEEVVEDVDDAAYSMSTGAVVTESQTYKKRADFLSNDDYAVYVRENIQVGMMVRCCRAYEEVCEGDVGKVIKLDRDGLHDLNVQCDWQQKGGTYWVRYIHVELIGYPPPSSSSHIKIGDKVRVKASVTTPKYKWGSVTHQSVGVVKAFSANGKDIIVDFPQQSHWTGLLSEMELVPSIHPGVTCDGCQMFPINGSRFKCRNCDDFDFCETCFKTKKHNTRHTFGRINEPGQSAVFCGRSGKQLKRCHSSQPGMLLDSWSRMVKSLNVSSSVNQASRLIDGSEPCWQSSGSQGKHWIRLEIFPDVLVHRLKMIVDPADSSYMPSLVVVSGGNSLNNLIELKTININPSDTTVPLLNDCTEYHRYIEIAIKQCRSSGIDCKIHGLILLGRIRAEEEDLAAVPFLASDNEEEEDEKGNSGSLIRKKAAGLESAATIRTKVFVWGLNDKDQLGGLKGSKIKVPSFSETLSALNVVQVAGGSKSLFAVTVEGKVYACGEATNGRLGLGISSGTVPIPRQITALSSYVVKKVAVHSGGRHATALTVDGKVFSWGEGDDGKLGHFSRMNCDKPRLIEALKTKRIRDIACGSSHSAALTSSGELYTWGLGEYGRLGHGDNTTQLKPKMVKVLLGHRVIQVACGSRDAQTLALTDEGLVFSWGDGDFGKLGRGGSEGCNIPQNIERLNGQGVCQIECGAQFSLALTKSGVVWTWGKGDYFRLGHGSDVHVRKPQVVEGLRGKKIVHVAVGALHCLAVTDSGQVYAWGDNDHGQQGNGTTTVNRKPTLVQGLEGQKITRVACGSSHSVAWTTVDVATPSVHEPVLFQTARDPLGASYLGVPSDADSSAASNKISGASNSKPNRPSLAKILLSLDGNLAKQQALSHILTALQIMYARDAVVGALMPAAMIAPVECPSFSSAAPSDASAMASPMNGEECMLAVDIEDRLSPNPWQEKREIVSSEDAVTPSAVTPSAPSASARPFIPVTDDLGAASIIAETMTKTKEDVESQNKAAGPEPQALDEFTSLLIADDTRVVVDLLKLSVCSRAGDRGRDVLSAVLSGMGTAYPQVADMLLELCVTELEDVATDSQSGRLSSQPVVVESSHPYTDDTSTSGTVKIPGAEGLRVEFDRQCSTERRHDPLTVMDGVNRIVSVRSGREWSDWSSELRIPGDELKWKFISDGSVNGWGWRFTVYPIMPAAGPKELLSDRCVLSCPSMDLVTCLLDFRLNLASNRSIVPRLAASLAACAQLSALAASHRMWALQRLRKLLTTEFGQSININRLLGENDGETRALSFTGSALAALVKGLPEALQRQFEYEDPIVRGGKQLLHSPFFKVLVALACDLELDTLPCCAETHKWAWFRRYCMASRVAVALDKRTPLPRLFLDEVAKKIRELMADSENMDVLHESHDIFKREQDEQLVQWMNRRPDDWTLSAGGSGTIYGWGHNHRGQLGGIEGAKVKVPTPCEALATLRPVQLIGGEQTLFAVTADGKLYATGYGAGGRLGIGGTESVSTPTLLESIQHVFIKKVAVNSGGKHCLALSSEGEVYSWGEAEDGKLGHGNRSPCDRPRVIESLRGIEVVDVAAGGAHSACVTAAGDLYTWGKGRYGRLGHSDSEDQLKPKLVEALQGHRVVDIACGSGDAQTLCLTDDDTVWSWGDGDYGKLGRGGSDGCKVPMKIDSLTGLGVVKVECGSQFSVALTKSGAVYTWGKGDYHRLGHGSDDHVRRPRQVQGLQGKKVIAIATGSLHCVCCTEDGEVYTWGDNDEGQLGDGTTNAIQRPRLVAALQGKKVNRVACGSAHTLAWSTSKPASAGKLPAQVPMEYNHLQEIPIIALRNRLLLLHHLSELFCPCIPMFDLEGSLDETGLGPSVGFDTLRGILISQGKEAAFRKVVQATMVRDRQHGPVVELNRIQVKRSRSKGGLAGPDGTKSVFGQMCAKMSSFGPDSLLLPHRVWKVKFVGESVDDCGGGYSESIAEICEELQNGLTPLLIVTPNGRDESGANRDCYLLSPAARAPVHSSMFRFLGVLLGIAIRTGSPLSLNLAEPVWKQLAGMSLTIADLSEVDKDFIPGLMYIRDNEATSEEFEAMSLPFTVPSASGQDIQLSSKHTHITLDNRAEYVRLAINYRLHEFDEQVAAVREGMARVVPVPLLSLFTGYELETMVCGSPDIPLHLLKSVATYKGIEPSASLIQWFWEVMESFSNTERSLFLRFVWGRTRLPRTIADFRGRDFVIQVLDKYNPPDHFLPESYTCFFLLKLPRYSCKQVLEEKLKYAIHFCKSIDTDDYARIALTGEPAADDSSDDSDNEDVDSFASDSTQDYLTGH
UniProt Q9UGI0: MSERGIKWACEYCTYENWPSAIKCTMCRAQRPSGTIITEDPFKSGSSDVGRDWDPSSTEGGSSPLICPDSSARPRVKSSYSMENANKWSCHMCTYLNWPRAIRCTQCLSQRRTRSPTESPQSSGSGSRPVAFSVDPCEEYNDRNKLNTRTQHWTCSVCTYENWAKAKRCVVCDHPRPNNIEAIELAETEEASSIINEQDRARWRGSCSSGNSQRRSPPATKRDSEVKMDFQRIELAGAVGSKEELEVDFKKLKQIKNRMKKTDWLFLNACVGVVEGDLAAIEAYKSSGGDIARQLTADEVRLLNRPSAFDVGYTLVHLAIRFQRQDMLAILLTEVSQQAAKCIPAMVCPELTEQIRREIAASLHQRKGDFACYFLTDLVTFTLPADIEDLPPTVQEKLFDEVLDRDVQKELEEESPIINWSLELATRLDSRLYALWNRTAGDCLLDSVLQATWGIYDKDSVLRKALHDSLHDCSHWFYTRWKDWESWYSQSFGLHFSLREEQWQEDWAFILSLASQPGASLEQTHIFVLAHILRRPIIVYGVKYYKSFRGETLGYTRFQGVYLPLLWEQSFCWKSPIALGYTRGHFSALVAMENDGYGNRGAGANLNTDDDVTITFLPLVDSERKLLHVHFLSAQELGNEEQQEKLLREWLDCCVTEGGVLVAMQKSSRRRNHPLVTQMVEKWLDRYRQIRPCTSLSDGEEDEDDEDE

binding: no binding
Substance: 3xFLAG_TRABID ΔOTU^TY>LV (from UniProt Q9UGI0) (domain or fragment)
